Source: patent publication US20210246191A1 (BIONTECH, published 2021)
No constants are given. Whether binding was seen depends on the method and setting. Some entries that bind do so weakly or less than the wild type. Sequences can lack the tags named with a protein.

Chains of the proteins cited; added tags and fusions are not shown. Residues count along the entry.
FN-B(8-14) (R&D Systems), EDB with C-terminal domains 8-13 and 1/2 of domain 14 (P02751, residues 1265-1908): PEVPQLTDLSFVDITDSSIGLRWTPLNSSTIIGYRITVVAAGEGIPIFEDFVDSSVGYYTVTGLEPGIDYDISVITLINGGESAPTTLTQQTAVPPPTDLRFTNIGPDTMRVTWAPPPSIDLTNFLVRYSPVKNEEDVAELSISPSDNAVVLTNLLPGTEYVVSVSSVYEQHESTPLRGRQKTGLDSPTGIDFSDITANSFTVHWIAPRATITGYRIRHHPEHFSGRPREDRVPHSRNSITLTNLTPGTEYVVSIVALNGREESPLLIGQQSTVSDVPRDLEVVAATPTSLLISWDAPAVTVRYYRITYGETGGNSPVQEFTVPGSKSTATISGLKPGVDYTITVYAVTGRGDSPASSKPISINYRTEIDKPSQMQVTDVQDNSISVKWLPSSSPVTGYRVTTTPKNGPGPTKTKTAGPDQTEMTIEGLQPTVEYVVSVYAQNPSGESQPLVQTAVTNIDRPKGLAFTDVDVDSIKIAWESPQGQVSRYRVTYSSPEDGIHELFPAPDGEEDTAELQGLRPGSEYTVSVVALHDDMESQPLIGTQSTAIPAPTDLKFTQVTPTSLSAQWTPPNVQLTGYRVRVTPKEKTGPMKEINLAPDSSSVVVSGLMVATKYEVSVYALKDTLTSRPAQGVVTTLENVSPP
T7-TEV-B (LD BioPharma), a T7-TEV N-terminally flanked EDB domain (P02751, residues 1265-1355): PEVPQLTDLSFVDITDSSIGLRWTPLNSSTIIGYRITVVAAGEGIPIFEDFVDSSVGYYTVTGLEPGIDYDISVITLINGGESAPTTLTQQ

How the values were obtained:
[1] = target: FN-B(8-14) (R&D Systems), EDB with C-terminal domains 8-13 and 1/2 of domain 14 (UniProt P02751); assay: ELISA, 200 nM Trx-fusion on coated protein (1 µg/well) (FIG. 5)
[2] = target: T7-TEV-B (LD BioPharma), a T7-TEV N-terminally flanked EDB domain (UniProt P02751); assay: as above
[3] = target: FN-B(8-14) (R&D Systems), EDB with C-terminal domains 8-13 and 1/2 of domain 14 (UniProt P02751); assay: ELISA titration of Trx-miniprotein on coated protein (1 µg/well), HRP anti-S-tag antibody, single values [continued), panel MCopt 1.0-3]
[4] = target: FN-B(8-14) (R&D Systems), EDB with C-terminal domains 8-13 and 1/2 of domain 14 (UniProt P02751); assay: ELISA titration, ten concentrations of Trx-fusion on coated protein (1 µg/well), anti-s-tag-HRP (FIG. 6)
[5] = target: FN-B(8-14) (R&D Systems), EDB with C-terminal domains 8-13 and 1/2 of domain 14 (UniProt P02751); assay: ELISA, 200 nM Trx-miniprotein on coated protein (1 µg/well), duplicates
[6] = target: T7-TEV-B (LD BioPharma), a T7-TEV N-terminally flanked EDB domain (UniProt P02751); assay: as above

binding [1]: binds
binding [2]: binds
binding [3]: binds
binding [4]: binds
binding [5]: binds
binding [6]: binds
Binder: PMCTQRKNRIRLCRRDSDCTGACICRGNGYCG (designed binder, not shown: large carriers; small tags and cut ends) [Trx-MC-FN-010 (thioredoxin fusion of cystine-knot miniprotein MC-FN-010)]
